Source: PubChem BioAssay AID489008 (National Center for Advancing Translational Sciences (NCATS), 2010)
This list was built around the results that the source calls inconclusive (neither active nor inactive); the mix of calls is not that of the screen. Potencies beside an inconclusive call are fits to weak or partial responses and may not hold up. The source made the active and inactive calls. Calls come from the whole dose curve; as a rule, active = well fitted inhibition curve with a large enough effect; inconclusive = small, poorly fitted or top-dose-only effect; inactive = flat fitted curve, though single readings scatter.

By UniProt entry, the sequences of proteins in these tests, tags left out. Residues count along the entry.
UniProt P02791, 2-175 limits assumed: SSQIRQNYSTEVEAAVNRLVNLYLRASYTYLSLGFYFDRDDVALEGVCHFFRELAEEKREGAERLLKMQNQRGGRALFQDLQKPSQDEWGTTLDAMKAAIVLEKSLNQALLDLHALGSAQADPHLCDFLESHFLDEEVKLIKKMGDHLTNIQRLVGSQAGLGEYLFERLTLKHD

Biological target: Ferritin light chain (Equus caballus) (UniProt P02791)
Test: Confirmation Assay for Identification of Novel General Anesthetics; note: nearly all actives have a fitted effect of over 40% in size
Details: apoferritin 1-aminoanthracene fluorescence displacement
Method in brief: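 Competitive displacement of profluorescent 1-aminoanthracene from 10 uM horse-spleen apoferritin in 50% saturated 1-AMA/PBS; 10 min RT, fluorescence Ex 380/Em 535. Normalized to free 1-AMA and complex; four-parameter Hill fit.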
Potency is the fitted concentration of half-maximal effect.

Potency, active:
Nc1nnc(COc2cccc(C(F)(F)F)c2)s1 15.8 µM
Oc1ccc(Cc2ncc(C(F)(F)F)cc2Cl)cc1 15.8 µM
Cc1ccc(NC(=O)COC(=O)CSC(=S)N2CCOCC2)cc1 15.8 µM
CCN1C(=O)N(c2ccc(Cl)cc2)C(C)=CC1(C)C 35.5 µM
CCCNC(=O)OCCC12CC3CC(CC(C3)C1)C2 7.08 µM
O=C(Cn1sc2ccccc2c1=O)NC12CC3CC(CC(C3)C1)C2 15.8 µM
Nc1ccc(C23CC4CC(CC(C4)C2)C3)cc1 7.08 µM
Oc1ccc(C(=S)N2CCCCC2)cc1Cl 17.8 µM
CCN(C(=O)c1ccco1)C1C2CC3CC(C2)CC1C3 (stereo not given) 14.1 µM
O=C(CCC(=O)c1ccc(Cl)cc1)OCC(=O)c1ccccc1 17.8 µM
Cc1ccc(CNC(=O)CN2N=C(c3ccccc3)CCC2=O)cc1 5.19 µM

Quoted at random: 2 records from the list, in no set order.
Potency, active:
O=C(CCC(=O)c1ccc(Cl)cc1)OCC(=O)c1ccccc1 17.8 µM
Cc1ccc(CNC(=O)CN2N=C(c3ccccc3)CCC2=O)cc1 5.19 µM

Next part.

Potency, inconclusive:
CC(C)N(C(=O)COc1ccc(Br)cc1Cl)C(C)C 35.5 µM [inhibitor, partial curve]
Cc1ccc(NC(=O)N(Cc2ccco2)C(C)c2ccco2)cc1C (stereo not given) 25.1 µM [inhibitor, partial curve]
COC(=O)CSc1nnc(SCc2ccccc2)s1 22.4 µM [inhibitor, partial curve]
Cc1ccc(C)c(C(=O)Cn2ncc(Cl)c(Cl)c2=O)c1 35.5 µM [inhibitor, partial curve]
O=S(=O)(NC1CCCCCCC1)c1cccs1 28.2 µM [inhibitor, partial curve]
Brc1ccccc1OCCCn1cnc2ccccc21 44.7 µM [inhibitor, partial curve]
O=C(CC(O)(c1ccccc1)C(F)(F)F)c1cccs1 (stereo not given) 39.8 µM [inhibitor, partial curve]
O=C(CNC(=O)c1ccco1)OCC(=O)c1cccc2ccccc12 17.8 µM [inhibitor, partial curve]
COc1cc(C(=S)N2CCC(C)CC2)ccc1O 28.2 µM [inhibitor, partial curve]
CCCC(=O)Nc1ccc(Br)c(Cl)c1 39.8 µM [inhibitor, partial curve]
COC(=O)CSc1snnc1-c1ccc(Cl)cc1Cl 39.8 µM [inhibitor, partial curve]
CC1CCCCC1NC(=O)COC(=O)c1ccccn1 (stereo not given) 31.6 µM [inhibitor, partial curve]
Cc1cc(C)cc(NC(=O)C2CCCC2)c1 22.4 µM [inhibitor, partial curve]
Clc1ccc(Cl)c(-c2ccc(/C=N/c3ncn[nH]3)o2)c1 35.5 µM [inhibitor, partial curve]
CC(=O)c1cccc(NC(=O)C2(c3ccccc3)CC2(Cl)Cl)c1 (stereo not given) 28.2 µM [inhibitor, partial curve]
Cc1cccc(NS(=O)(=O)c2ccc(C3CCCCC3)cc2)n1 35.5 µM [inhibitor, partial curve]
CCCCN(C)C(=O)Cn1nc(-c2ccc(Cl)cc2)ccc1=O 20 µM [inhibitor, partial curve]
CC(C)(C)C(=O)Nc1ccc(N2CCCC2)cc1 31.6 µM [inhibitor, partial curve]
O=C(CCc1ccccc1)Nc1ccccc1F 39.8 µM [inhibitor, partial curve]
Cc1ccc(C)c(NS(=O)(=O)c2ccccc2C)c1 17.8 µM [inhibitor, partial curve]
Cc1ccc(CSC2=CS(=O)(=O)c3ccccc3N2)cc1 39.8 µM [inhibitor, partial curve]
CC(C)(C)c1ccc(-n2nc(C#N)c(Cl)cc2=O)cc1 17.8 µM [inhibitor, partial curve]
O=C(CSC(=S)N1CCSCC1)c1ccccc1 35.5 µM [inhibitor, partial curve]
OC(c1ccccc1)c1nc2ccccc2s1 (stereo not given) 31.6 µM [inhibitor, partial curve]
